Experiment [1] deals with T1, Myc-CNOT4 (CCR4-NOT transcription complex subunit 4), full length (UniProt O95628).
T1 sequence: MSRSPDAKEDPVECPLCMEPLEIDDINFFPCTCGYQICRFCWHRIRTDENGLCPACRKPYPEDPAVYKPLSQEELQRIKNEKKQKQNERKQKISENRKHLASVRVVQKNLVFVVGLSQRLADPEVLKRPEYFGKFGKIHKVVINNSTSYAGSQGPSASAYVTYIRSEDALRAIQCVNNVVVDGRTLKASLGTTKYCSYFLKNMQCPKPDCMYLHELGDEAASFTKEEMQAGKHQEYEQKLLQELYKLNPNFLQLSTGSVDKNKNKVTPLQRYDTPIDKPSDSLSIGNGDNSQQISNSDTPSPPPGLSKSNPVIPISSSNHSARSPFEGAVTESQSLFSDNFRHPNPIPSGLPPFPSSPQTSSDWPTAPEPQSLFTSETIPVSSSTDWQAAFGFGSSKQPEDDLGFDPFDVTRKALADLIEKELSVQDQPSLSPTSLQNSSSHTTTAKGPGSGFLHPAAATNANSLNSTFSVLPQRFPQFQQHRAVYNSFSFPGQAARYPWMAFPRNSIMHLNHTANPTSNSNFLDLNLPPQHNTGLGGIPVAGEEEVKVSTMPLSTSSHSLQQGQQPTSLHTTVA
As to the kind of experiment: co-IP; HEK293T cells transfected with Flag-TNKS1BP1 or Myc-CNOT4 plasmids only; lysates immunoprecipitated with anti-Flag or anti-Myc antibodies, immunoblotting for the E3 ligases. A general note: A western blot detects proteins with antibodies after separation by electrophoresis.

Amino acid sequences for entries named in this document (tags omitted).
UniProt Q9C0C2: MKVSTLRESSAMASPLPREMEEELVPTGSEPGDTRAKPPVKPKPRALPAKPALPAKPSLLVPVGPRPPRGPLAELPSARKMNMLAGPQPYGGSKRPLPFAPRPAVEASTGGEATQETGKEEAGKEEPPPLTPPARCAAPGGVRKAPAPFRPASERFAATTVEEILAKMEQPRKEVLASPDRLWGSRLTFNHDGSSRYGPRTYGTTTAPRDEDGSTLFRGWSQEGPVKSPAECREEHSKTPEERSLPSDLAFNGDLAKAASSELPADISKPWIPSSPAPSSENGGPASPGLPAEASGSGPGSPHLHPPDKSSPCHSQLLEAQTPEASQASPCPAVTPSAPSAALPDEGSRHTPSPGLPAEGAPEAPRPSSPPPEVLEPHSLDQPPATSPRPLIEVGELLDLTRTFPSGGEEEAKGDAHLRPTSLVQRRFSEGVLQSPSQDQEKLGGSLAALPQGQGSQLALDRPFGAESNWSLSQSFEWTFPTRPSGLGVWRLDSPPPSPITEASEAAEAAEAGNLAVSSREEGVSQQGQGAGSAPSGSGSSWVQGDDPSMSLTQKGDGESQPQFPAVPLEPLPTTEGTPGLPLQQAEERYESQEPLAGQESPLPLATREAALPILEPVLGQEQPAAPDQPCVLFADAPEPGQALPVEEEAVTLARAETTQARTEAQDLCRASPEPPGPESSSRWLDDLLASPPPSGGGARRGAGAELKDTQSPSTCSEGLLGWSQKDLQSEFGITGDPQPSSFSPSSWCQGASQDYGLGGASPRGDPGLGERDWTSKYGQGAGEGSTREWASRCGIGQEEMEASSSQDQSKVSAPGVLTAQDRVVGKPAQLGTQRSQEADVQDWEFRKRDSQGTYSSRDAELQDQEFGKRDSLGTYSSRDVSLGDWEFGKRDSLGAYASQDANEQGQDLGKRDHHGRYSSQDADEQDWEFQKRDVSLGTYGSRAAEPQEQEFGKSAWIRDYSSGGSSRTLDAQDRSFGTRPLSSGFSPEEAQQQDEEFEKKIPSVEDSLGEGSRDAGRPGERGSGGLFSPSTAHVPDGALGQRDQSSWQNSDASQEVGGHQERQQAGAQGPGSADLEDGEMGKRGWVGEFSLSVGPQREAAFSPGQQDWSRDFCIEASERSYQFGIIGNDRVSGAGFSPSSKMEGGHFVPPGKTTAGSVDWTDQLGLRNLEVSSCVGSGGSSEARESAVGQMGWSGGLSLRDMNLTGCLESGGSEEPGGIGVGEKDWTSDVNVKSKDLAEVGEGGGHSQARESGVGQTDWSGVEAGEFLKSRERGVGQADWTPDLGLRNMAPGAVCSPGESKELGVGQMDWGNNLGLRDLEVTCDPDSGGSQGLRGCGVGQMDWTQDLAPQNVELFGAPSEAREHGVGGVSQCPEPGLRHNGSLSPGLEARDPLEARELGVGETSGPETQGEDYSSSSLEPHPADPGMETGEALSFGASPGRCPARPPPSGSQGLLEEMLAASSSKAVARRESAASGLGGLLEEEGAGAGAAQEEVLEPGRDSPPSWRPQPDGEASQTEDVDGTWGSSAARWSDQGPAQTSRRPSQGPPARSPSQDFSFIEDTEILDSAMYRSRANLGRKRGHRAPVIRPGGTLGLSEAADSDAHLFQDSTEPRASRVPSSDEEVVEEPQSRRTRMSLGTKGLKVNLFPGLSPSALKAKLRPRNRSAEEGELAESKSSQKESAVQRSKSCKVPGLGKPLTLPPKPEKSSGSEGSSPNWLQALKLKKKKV
UniProt P19474: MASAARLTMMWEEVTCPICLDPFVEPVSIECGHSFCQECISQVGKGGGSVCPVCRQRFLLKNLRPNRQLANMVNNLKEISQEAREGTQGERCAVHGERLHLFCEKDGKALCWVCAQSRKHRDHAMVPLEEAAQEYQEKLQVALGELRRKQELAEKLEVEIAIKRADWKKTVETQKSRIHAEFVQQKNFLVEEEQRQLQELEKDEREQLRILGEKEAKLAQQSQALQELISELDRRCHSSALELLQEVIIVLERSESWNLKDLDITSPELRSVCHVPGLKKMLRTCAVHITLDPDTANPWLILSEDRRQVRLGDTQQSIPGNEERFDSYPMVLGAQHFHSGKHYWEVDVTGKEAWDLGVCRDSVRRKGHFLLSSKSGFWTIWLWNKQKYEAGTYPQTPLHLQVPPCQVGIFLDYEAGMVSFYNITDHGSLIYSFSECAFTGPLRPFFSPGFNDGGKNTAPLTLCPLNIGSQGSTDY

The target of experiment [2] is Flag-TNKS1BP1 (tankyrasel binding protein 1) (UniProt Q9C0C2). The description is as above.
For experiment [3], the target named is T1, Myc-CNOT4 (CCR4-NOT transcription complex subunit 4), full length. As to the kind of experiment: co-IP; HEK293T cells transfected with both tagged partners (full-length or truncated); lysates immunoprecipitated with anti-Flag or anti-Myc antibodies, WB.
The target of experiment [4] is T2, Myc-CNOT4 truncated mutant, RRM domain (UniProt O95628).
T2 sequence: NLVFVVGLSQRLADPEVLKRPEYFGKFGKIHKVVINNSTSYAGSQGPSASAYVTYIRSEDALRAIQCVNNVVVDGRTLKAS
The experiment is described as above.

The target in experiment [5] is T3, CNOT4, endogenous in HCC cells (not stated (endogenous in HCC cells, line not named)) (UniProt O95628).
T3 sequence: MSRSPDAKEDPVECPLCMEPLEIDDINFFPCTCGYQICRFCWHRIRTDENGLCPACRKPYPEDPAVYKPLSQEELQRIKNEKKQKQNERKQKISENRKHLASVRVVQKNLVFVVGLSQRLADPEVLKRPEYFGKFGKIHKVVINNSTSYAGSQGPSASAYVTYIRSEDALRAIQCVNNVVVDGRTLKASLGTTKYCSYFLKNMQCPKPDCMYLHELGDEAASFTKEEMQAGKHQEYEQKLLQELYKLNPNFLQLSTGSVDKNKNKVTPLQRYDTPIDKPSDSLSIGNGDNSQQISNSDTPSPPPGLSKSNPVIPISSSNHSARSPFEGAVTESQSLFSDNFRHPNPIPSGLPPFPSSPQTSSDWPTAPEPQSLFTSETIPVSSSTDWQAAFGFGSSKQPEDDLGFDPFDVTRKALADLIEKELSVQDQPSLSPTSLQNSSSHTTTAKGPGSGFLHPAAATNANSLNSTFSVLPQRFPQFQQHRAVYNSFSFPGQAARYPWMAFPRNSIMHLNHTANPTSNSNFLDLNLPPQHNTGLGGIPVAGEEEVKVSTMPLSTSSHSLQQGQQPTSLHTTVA
Put plainly: co-IP; endogenous co-IP in HCC cells.

The target in experiment [6] is TNKS1BP1, endogenous in HCC cells (not stated (endogenous in HCC cells, line not named)) (UniProt Q9C0C2). As to the kind of experiment: co-IP; endogenous co-IP in HCC cells.

Results are given in words; binding and its absence hold for the method and conditions named. In cells and extracts the contact can be indirect. Some binding calls cover weakened binding; strength is not graded here. For some of these results: Where a sequence is shown, tags or fusion partners need not be part of it.

On to “TRIM21 (tripartite motif containing 21) in HEK293T lysate (from UniProt P19474 1-475)”, for which the binding result in experiment [1] and in experiment [2] was “binds” each time.

Turning to “Flag-TRIM21, full length (from UniProt P19474 1-475)”, the binding result in experiment [3] and in experiment [4] was “binds” throughout.

For “TRIM21, endogenous in HCC cells (from UniProt P19474 1-475)”, the binding entry in experiment [5] and in experiment [6] was “binds” each time.

B1: TRIM33 in HEK293T lysate (protein, UniProt Q9UPN9 1-1127)
chain: MAENKGGGEAESGGGGSGSAPVTAGAAGPAAQEAEPPLTAVLVEEEEEEGGRAGAEGGAAGPDDGGVAAASSGSAQAASSPAASVGTGVAGGAVSTPAPAPASAPAPGPSAGPPPGPPASLLDTCAVCQQSLQSRREAEPKLLPCLHSFCLRCLPEPERQLSVPIPGGSNGDIQQVGVIRCPVCRQECRQIDLVDNYFVKDTSEAPSSSDEKSEQVCTSCEDNASAVGFCVECGEWLCKTCIEAHQRVKFTKDHLIRKKEDVSESVGASGQRPVFCPVHKQEQLKLFCETCDRLTCRDCQLLEHKEHRYQFLEEAFQNQKGAIENLLAKLLEKKNYVHFAATQVQNRIKEVNETNKRVEQEIKVAIFTLINEINKKGKSLLQQLENVTKERQMKLLQQQNDITGLSRQVKHVMNFTNWAIASGSSTALLYSKRLITFQLRHILKARCDPVPAANGAIRFHCDPTFWAKNVVNLGNLVIESKPAPGYTPNVVVGQVPPGTNHISKTPGQINLAQLRLQHMQQQVYAQKHQQLQQMRMQQPPAPVPTTTTTTQQHPRQAAPQMLQQQPPRLISVQTMQRGNMNCGAFQAHQMRLAQNAARIPGIPRHSGPQYSMMQPHLQRQHSNPGHAGPFPVVSVHNTTINPTSPTTATMANANRGPTSPSVTAIELIPSVTNPENLPSLPDIPPIQLEDAGSSSLDNLLSRYISGSHLPPQPTSTMNPSPGPSALSPGSSGLSNSHTPVRPPSTSSTGSRGSCGSSGRTAEKTSLSFKSDQVKVKQEPGTEDEICSFSGGVKQEKTEDGRRSACMLSSPESSLTPPLSTNLHLESELDALASLENHVKIEPADMNESCKQSGLSSLVNGKSPIRSLMHRSARIGGDGNNKDDDPNEDWCAVCQNGGDLLCCEKCPKVFHLTCHVPTLLSFPSGDWICTFCRDIGKPEVEYDCDNLQHSKKGKTAQGLSPVDQRKCERLLLYLYCHELSIEFQEPVPASIPNYYKIIKKPMDLSTVKKKLQKKHSQHYQIPDDFVADVRLIFKNCERFNEMMKVVQVYADTQEINLKADSEVAQAGKAVALYFEDKLTEIYSDRTFAPLPEFEQEEDDGEVTEDSDEDFIQPRRKRLKSDERPVHIK
For B1, the binding result in experiment [1] is recorded as “binds”.

These data come from article PMC11255314.
